Test results from PubChem BioAssay AID624291 (National Center for Advancing Translational Sciences (NCATS), 2012).
Out of some 350,000 compounds screened, about 220 (0.063%) were called active. The inconclusive results got no clear call from the source; some entries with a clear call stand among them for comparison. The call rests on the fitted dose curve; in most records, active means well fitted activation curve with a large enough effect; inconclusive means small, poorly fitted or top-dose-only effect; inactive means no such curve, though single readings can be large or run the other way. A potency beside an inconclusive call is a rough fit, not a confirmed value.

Assay: qHTS for Activators of Integrin-Mediated Alleviation for Muscular Dystrophy; further: nearly all actives have a fitted effect of over 60% in size
Conditions: alpha7betagal myoblasts, beta-gal FDG fluorescence, 48 h; series mostly up to 38.3 µM
In short: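 alpha7betagal+/- myoblasts (passage 13, 250/well) treated 48 h at 37C with compounds at 1:260 dilution of DMSO stock. Lysed, then beta-galactosidase activity read as FDG fluorescence (ex 480/em 540) after 30 min, with pre-read for autofluorescence.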
Potency means the concentration at half of the fitted maximal effect.

| SMILES | Potency |
| --- | --- |
| COc1ccc(S(=O)(=O)N(CC(=O)NN=C2CCN(C)CC2)c2ccc(C)cc2)cc1OC | inconclusive: 10 µM [activator, partial curve, poor fit] |
| COc1ccc(NC(=O)Cn2nnc(C(=O)NCc3cccs3)c2N)cc1 | inconclusive: 5.01 µM [activator, single point] |
| CCCCCCn1nc(C(=O)N(CCOC)c2c(N)n(CCCC)c(=O)[nH]c2=O)c2ccccc2c1=O | inconclusive: 3.16 µM [activator, single point] |
| O=C(NC1=NCCS1)c1ccc(C(F)(F)F)cc1 | inconclusive: 28.2 µM [activator, single point] |
| O=S(=O)(Nc1ccncc1Cl)c1cc(Cl)ccc1Cl | inconclusive: 5.62 µM [activator, full curve, poor fit] |
| Cc1ccc(OCCN2C(=O)c3ccccc3C2=O)c([N+](=O)[O-])c1 | inactive |
| CCOC(=O)C1(Cc2cccc(Cl)c2)CCCN(C(=O)c2cccc(C)n2)C1 (configuration not stated) | inconclusive: 5.01 µM [activator, partial curve, poor fit] |
| CN1CCN(c2ccc(S(=O)(=O)N3CCCCC3)cc2NC(=O)Cc2ccc(Cl)cc2)CC1 | inconclusive: 11.2 µM [activator, single point] |
| COc1ccc(/C=N/Nc2ccccc2C(=O)O)cc1 | inconclusive: 2.51 µM [activator, partial curve, poor fit] |
| COc1ccc(-c2nnc(SCC(=O)c3ccco3)n2-c2ccccc2)cc1 | inconclusive: 14.1 µM [activator, single point] |
| CCc1sc(C(=O)Nc2nc(-c3ccccn3)cs2)cc1C | inactive |
| O=[N+]([O-])c1ccc(NCCOc2ccccc2Cl)nc1 | inconclusive: 0.501 µM [activator, full curve, poor fit] |
| N#Cc1c(N)nc2c(c1N)CC(CO)O2 (configuration not stated) | inactive |
| COc1ccc(C(=O)NC(C(=O)NCc2ccccn2)C(C)C)cc1 (configuration not stated) | inconclusive: 28.2 µM [activator, single point] |
| Cc1ccc(-c2cc(C(=O)NNC(=O)c3csc(N4CCOCC4)n3)c3ccccc3n2)cc1 | inconclusive: 5.01 µM [activator, single point] |
| COc1cc(=O)n(C)c2ccccc12 | active: 2.24 µM |
| CCC(=O)N1CCc2cc(S(=O)(=O)CCC(=O)N3CCN(c4ccccc4)CC3)ccc21 | inconclusive: 5.01 µM [activator, single point] |
| CC(Sc1ccc(Cl)cc1)C(=O)NNC(=O)c1ccncc1 (configuration not stated) | inconclusive: 5.01 µM [activator, single point] |
| COCCCNc1nc2nonc2nc1N1CCN(C2CCCC2)CC1 | inconclusive: 2.82 µM [activator, partial curve, poor fit] |
| Clc1ccc(C2=NN(c3ccccc3)C(c3ccco3)C2)cc1 (configuration not stated) | inconclusive: 3.55 µM [activator, single point] |
| N#C/C(=C\c1ccc(O)cc1)C(=O)NCc1ccccc1 | inconclusive: 5.01 µM [activator, single point] |

Laid out differently: entries from further up.
SMILES,Potency
COc1ccc(-c2nnc(SCC(=O)c3ccco3)n2-c2ccccc2)cc1,"inconclusive: 14.1 µM [activator, single point]"
CCc1sc(C(=O)Nc2nc(-c3ccccn3)cs2)cc1C,inactive
O=[N+]([O-])c1ccc(NCCOc2ccccc2Cl)nc1,"inconclusive: 0.501 µM [activator, full curve, poor fit]"
N#Cc1c(N)nc2c(c1N)CC(CO)O2 (configuration not stated),inactive
COc1ccc(C(=O)NC(C(=O)NCc2ccccn2)C(C)C)cc1 (configuration not stated),"inconclusive: 28.2 µM [activator, single point]"
Cc1ccc(-c2cc(C(=O)NNC(=O)c3csc(N4CCOCC4)n3)c3ccccc3n2)cc1,"inconclusive: 5.01 µM [activator, single point]"
COc1cc(=O)n(C)c2ccccc12,active: 2.24 µM
CCC(=O)N1CCc2cc(S(=O)(=O)CCC(=O)N3CCN(c4ccccc4)CC3)ccc21,"inconclusive: 5.01 µM [activator, single point]"
CC(Sc1ccc(Cl)cc1)C(=O)NNC(=O)c1ccncc1 (configuration not stated),"inconclusive: 5.01 µM [activator, single point]"
COCCCNc1nc2nonc2nc1N1CCN(C2CCCC2)CC1,"inconclusive: 2.82 µM [activator, partial curve, poor fit]"
Clc1ccc(C2=NN(c3ccccc3)C(c3ccco3)C2)cc1 (configuration not stated),"inconclusive: 3.55 µM [activator, single point]"
N#C/C(=C\c1ccc(O)cc1)C(=O)NCc1ccccc1,"inconclusive: 5.01 µM [activator, single point]"

(next part)

| SMILES | Potency |
| --- | --- |
| O=C(NCC1CCCO1)/C(=C/c1ccccc1F)NC(=O)c1ccccc1 (configuration not stated) | inconclusive: 10 µM [activator, single point] |
| COC(=O)c1sccc1NC(=S)OC | inconclusive: 14.1 µM [activator, single point] |
| CC1=NN(C(=O)c2ccc(Cn3nc(C)cc3C)o2)C(O)(C(F)(F)F)C1 (configuration not stated) | inactive |
| Cc1onc(-c2ccccc2)c1C(=O)N/N=C/c1ccc([N+](=O)[O-])c(O)c1 | inconclusive: 28.2 µM [activator, single point] |
| COc1ccc(CCNc2nc(-c3cccnc3)nc3ccccc23)cc1OC | inconclusive: 10 µM [activator, partial curve, poor fit] |
| CCn1c(=O)c2c(n3cnnc13)-c1ccccc1CC21CCCCC1 | inconclusive: 1.26 µM [activator, partial curve, poor fit] |
| CCOc1ccc(N(C)C(=O)CCc2nnc3ccc(N4CCCC4)nn23)cc1 | inconclusive: 28.2 µM [activator, single point] |
| COc1ccc(S(=O)(=O)Cc2ccc(C(=O)NC3CCCCCC3)o2)cc1 | inactive |
| Cc1nn(Cc2ccc(C(=O)N3CCCC3)o2)c(C)c1[N+](=O)[O-] | inconclusive: 5.01 µM [activator, single point] |
| COc1ccc(C(=O)NNC(=O)CSc2nnc(-c3cccnc3)n2C)cc1 | inconclusive: 3.55 µM [activator, partial curve, poor fit] |
| CC(CCc1ccccc1)NCC#N (configuration not stated) | inactive |
| CCCSc1nsc(NC(=O)c2cccnc2OCC)n1 | inconclusive: 11.2 µM [activator, partial curve, poor fit] |
| O=C(COC(=O)/C=C/c1cccc([N+](=O)[O-])c1)NCCCN1CCCC1=O | inconclusive: 4.47 µM [activator, single point] |
| COc1ccc2oc(=O)c(C(=O)NCc3ccc(C)cc3)cc2c1 | inconclusive: 15.8 µM [activator, single point] |
| Cc1cc(C)cc(Nc2ccc3nonc3c2[N+](=O)[O-])c1 | inconclusive: 11.2 µM [activator, partial curve, poor fit] |
| O=C(Nc1nnc(-c2ccncc2)o1)c1ccccc1 | inactive |
| COc1ccccc1C(CNC(=O)c1cccc(NS(=O)(=O)c2ccc(C)c(F)c2)c1)N1CCCC1 (configuration not stated) | inactive |
| COc1cc(C=O)ccc1OCc1ccncc1 | inconclusive: 5.01 µM [activator, single point] |
| COc1ccc(N2CCN(C(=O)c3cc(-c4cccs4)nc4ccccc34)CC2)cc1 | inconclusive: 5.01 µM [activator, single point] |
| Cc1nnc(NC(=O)CSc2cn(Cc3ccccc3)c3ccccc23)s1 | inactive |
| COc1cccc(N=C2NC(=O)/C(=C/c3cc([N+](=O)[O-])ccc3O)S2)c1 | inconclusive: 8.91 µM [activator, partial curve, poor fit] |
